Laboratory results as given in the supplement of paper PMC7661543.
Differences between knockout arms are mostly noise.

Test system: HCC-38
Experiment: relative cell number vs DMSO control (72 h) (% of DMSO); higher = less growth inhibition (more cells)
Method: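 QMAP-Seq: a pool of 5 breast cancer cell lines (ZR-75-1, SKBR3, HCC-38, MDA-MB-231, BT-20), each carrying 12 doxycycline-inducible Cas9 sgRNA perturbations (11 knockouts plus non-targeting sgNT), was treated with compounds for 72 h at four 10-fold doses (10 nM-10 uM or 1 nM-1 uM range). Barcodes were amplified and sequenced, and cell number was interpolated from 293T spike-in standard curves. The result is expressed as % of the median of DMSO wells. Two biological replicates.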

Cn1c(CCCC(=O)O)nc2cc(N(CCCl)CCCl)ccc21 [Bendamustine]
Settings	relative cell number
sgRNA knockout: sgATF3, 10 nM	112
sgRNA knockout: sgATF3, 100 nM	105
sgRNA knockout: sgATF3, 1000 nM	122
sgRNA knockout: sgATF3, 10000 nM	134
sgRNA knockout: sgATF4, 10 nM	113
sgRNA knockout: sgATF4, 100 nM	96
sgRNA knockout: sgATF4, 1000 nM	122
sgRNA knockout: sgATF4, 10000 nM	112.7
sgRNA knockout: sgATF6, 10 nM	116
sgRNA knockout: sgATF6, 100 nM	125
sgRNA knockout: sgATF6, 1000 nM	120.9
sgRNA knockout: sgATF6, 10000 nM	145
sgRNA knockout: sgATG7, 10 nM	114
sgRNA knockout: sgATG7, 100 nM	104
sgRNA knockout: sgATG7, 1000 nM	111
sgRNA knockout: sgATG7, 10000 nM	129
sgRNA knockout: sgERN1, 10 nM	106
sgRNA knockout: sgERN1, 100 nM	112
sgRNA knockout: sgERN1, 1000 nM	110
sgRNA knockout: sgERN1, 10000 nM	137
sgRNA knockout: sgHSF1, 10 nM	134
sgRNA knockout: sgHSF1, 100 nM	131
sgRNA knockout: sgHSF1, 1000 nM	120
sgRNA knockout: sgHSF1, 10000 nM	191
sgRNA knockout: sgHSF2, 10 nM	123
sgRNA knockout: sgHSF2, 100 nM	118
sgRNA knockout: sgHSF2, 1000 nM	128
sgRNA knockout: sgHSF2, 10000 nM	156
sgRNA knockout: sgKEAP1, 10 nM	126
sgRNA knockout: sgKEAP1, 100 nM	156
sgRNA knockout: sgKEAP1, 1000 nM	125
sgRNA knockout: sgKEAP1, 10000 nM	202
sgRNA knockout: sgNFE2L2, 10 nM	114
sgRNA knockout: sgNFE2L2, 100 nM	101
sgRNA knockout: sgNFE2L2, 1000 nM	126
sgRNA knockout: sgNFE2L2, 10000 nM	108
sgRNA knockout: sgSLC35F2, 10 nM	113
sgRNA knockout: sgSLC35F2, 100 nM	104
sgRNA knockout: sgSLC35F2, 1000 nM	114
sgRNA knockout: sgSLC35F2, 10000 nM	116
sgRNA knockout: sgXBP1, 10 nM	111
sgRNA knockout: sgXBP1, 100 nM	103
sgRNA knockout: sgXBP1, 1000 nM	128
sgRNA knockout: sgXBP1, 10000 nM	123.8

CC1(C)CCC(c2ccc(Cl)cc2)=C(CN2CCN(c3ccc(C(=O)NS(=O)(=O)c4ccc(N[C@H](CCN5CCOCC5)CSc5ccccc5)c(S(=O)(=O)C(F)(F)F)c4)cc3)CC2)C1 [Navitoclax]
Settings	relative cell number
sgRNA knockout: sgATF3, 10 nM	93.4
sgRNA knockout: sgATF3, 100 nM	106
sgRNA knockout: sgATF3, 1000 nM	76.1
sgRNA knockout: sgATF3, 10000 nM	49.5
sgRNA knockout: sgATF4, 10 nM	86.3
sgRNA knockout: sgATF4, 100 nM	100
sgRNA knockout: sgATF4, 1000 nM	89.5
sgRNA knockout: sgATF4, 10000 nM	61.405
sgRNA knockout: sgATF6, 10 nM	101
sgRNA knockout: sgATF6, 100 nM	101
sgRNA knockout: sgATF6, 1000 nM	86.2
sgRNA knockout: sgATF6, 10000 nM	50.7
sgRNA knockout: sgATG7, 10 nM	91
sgRNA knockout: sgATG7, 100 nM	101
sgRNA knockout: sgATG7, 1000 nM	68.9
sgRNA knockout: sgATG7, 10000 nM	46.1
sgRNA knockout: sgERN1, 10 nM	90.2
sgRNA knockout: sgERN1, 100 nM	103.4
sgRNA knockout: sgERN1, 1000 nM	77.6
sgRNA knockout: sgERN1, 10000 nM	49.6
sgRNA knockout: sgHSF1, 10 nM	102
sgRNA knockout: sgHSF1, 100 nM	107
sgRNA knockout: sgHSF1, 1000 nM	83.8
sgRNA knockout: sgHSF1, 10000 nM	47
sgRNA knockout: sgHSF2, 10 nM	98.6
sgRNA knockout: sgHSF2, 100 nM	113
sgRNA knockout: sgHSF2, 1000 nM	69.3
sgRNA knockout: sgHSF2, 10000 nM	57.84
sgRNA knockout: sgKEAP1, 10 nM	95.6
sgRNA knockout: sgKEAP1, 100 nM	110
sgRNA knockout: sgKEAP1, 1000 nM	74.6
sgRNA knockout: sgKEAP1, 10000 nM	39.8
sgRNA knockout: sgNFE2L2, 10 nM	92.3
sgRNA knockout: sgNFE2L2, 100 nM	96.3
sgRNA knockout: sgNFE2L2, 1000 nM	86
sgRNA knockout: sgNFE2L2, 10000 nM	51
sgRNA knockout: sgSLC35F2, 10 nM	94.78
sgRNA knockout: sgSLC35F2, 100 nM	105
sgRNA knockout: sgSLC35F2, 1000 nM	74.1
sgRNA knockout: sgSLC35F2, 10000 nM	51.5
sgRNA knockout: sgXBP1, 10 nM	91.4
sgRNA knockout: sgXBP1, 100 nM	100
sgRNA knockout: sgXBP1, 1000 nM	71.5
sgRNA knockout: sgXBP1, 10000 nM	48.3
